Measured values from patent US11246877B2, “Nanoparticles for chemotherapy, targeted therapy, photodynamic therapy, immunotherapy, and any combination thereof” (The University of Chicago, priority 2016, dated 2022).

Experiments:
Format in all cases: cell-based
A2780 cells = test: In vitro cytotoxicity in ovarian cancer cells, MTS, 72 h; settings: A2780, 72 h, cisplatin concentration
Method: (§1) A2780, A2780/CDDP, and SKOV-3 cells were seeded into 96-well plate at 2000 cells/well for 24 h. Afterwards cells were treated with free DHA or Zn/DHA at various concentrations and incubated for another 72 h. The cell viability was then determined via MTS assay by microplate reader.
(§2) A2780, A2780/CDDP, and SKOV-3 cells were seeded into 96-well plate at 2000 cells/well for 24 h. Afterwards cells were treated with different formulations at various concentrations and incubated for another 72 h. The cell viability was then determined via MTS assay by microplate reader.

SKOV-3 cells = test: as above; settings: SKOV-3, 72 h, cisplatin concentration
Method: as §1, §2

A549 cells = test: In vitro cytotoxicity against non-small cell lung cancer cells, MTS, 72 h; settings: Homo sapiens
Method: H460 and A549 cells seeded on 96-well plates at a density of 2000 cells/well were treated with Zn/PTX and free PTX at various […] concentrations for 72 h. The cell viability was then detected by MTS assay (Promega, USA) and the IC50 values were calculated accordingly.

| SMILES | IC50 (A2780 cells) | IC50 (SKOV-3 cells) | IC50 (A549 cells) |
| --- | --- | --- | --- |
| N.N.[Cl][Pt][Cl] [Cisplatin, cisplatin] | 4.05 ± 0.74 µM | 35 ± 5.43 µM | – |
| CC(=O)O[C@H]1C(=O)[C@@]2(C)[C@H]([C@H](OC(=O)c3ccccc3)[C@]3(O)C[C@H](OC(=O)[C@H](O)[C@@H](NC(=O)c4ccccc4)c4ccccc4)C(C)=C1C3(C)C)[C@]1(OC(C)=O)CO[C@@H]1C[C@@H]2O [PTX, Paclitaxel] | – | – | 10.09 ± 0.06 µM |
